These are yes or no findings as the source states them, for the method shown. Some results given as binding are weak or reduced against the parent protein; the word gives no strength.
How the values were obtained:
[1] = target: chloroplast ATP synthase (cATPase) subunit III, membrane ring (III)14 (Spinacia oleracea) (UniProt P69447); assay: cross-linking; comparative: dephosphorylated cATPase (calf intestinal alkaline phosphatase, 37 °C) cross-linked with 2.5 mM deuterated BS3, untreated cATPase with non-deuterated BS3, pooled; areas of extracted ion chromatograms of heavy and light cross-links compared; both purified
[2] = target: chloroplast ATP synthase (cATPase) subunit III, membrane ring (III)14 (Spinacia oleracea) (UniProt P69447); assay: cross-linking; untreated cATPase, 1:1 mixture of 2.5 mM BS3-d4 and 2.5 mM BS3-d0, 1 h at room temperature; NuPAGE gel, in-gel digestion, LC-MS/MS, MassMatrix search, manual validation; both purified

Chains of the proteins cited; added tags and fusions are not shown.
UniProt P69447: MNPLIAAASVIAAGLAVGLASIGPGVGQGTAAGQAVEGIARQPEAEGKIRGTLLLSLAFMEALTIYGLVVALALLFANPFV

| Binder | binding [1] | binding [2] |
| --- | --- | --- |
| cATPase subunit ε, dephosphorylated enzyme (protein, UniProt P00833 1-134) MTLNLCVLTPNRSIWNSEVKEIILSTNSGQIGVLPNHAPTATAVDIGILRIRLNDQWLTLALMGGFARIGNNEITILVNDAERGSDIDPQEAQQTLEIAEANLRKAEGKRQKIEANLALRRARTRVEASNTISS | binds | – |
| chloroplast ATP synthase (cATPase) subunit ε, untreated enzyme (protein, UniProt P00833 1-134, phosphosite identified at S13) MTLNLCVLTPNRSIWNSEVKEIILSTNSGQIGVLPNHAPTATAVDIGILRIRLNDQWLTLALMGGFARIGNNEITILVNDAERGSDIDPQEAQQTLEIAEANLRKAEGKRQKIEANLALRRARTRVEASNTISS | – | binds |
